# Data from paper PMC12582992.
# No constants are given. Whether binding was seen depends on the method and setting. Binding seen in cells or lysates may run through a third protein. A yes stands for co-enrichment or nearness to the bait. Other partners may have been found.
# B1: RNF219, ring finger protein 219 (protein, UniProt Q5W0B1 1-726)
# chain: MAQTVQNVTLSLTLPITCHICLGKVRQPVICINNHVFCSICIDLWLKNNSQCPACRVPITPENPCKEIIGGTSESEPMLSHTVRKHLRKTRLELLHKEYEDEIDCLQKEVEELKSKNLSLESQIKTILDPLTLVQGNQNEDKHLVTDNPSKINPETVAEWKKKLRTANEIYEKVKDDVDKLKEANKKLKLENGGLVRENLRLKAEVDNRSPQKFGRFAVAALQSKVEQYERETNRLKKALERSDKYIEELESQVAQLKNSSEEKEAMNSICQTALSADGKGSKGSEEDVVSKNQGDSARKQPGSSTSSSSHLAKPSSSRLCDTSSARQESTSKADLNCSKNKDLYQEQVEVMLDVTDTSMDTYLEREWGNKPSDCVPYKDEELYDLPAPCTPLSLSCLQLSTPENRESSVVQAGGSKKHSNHLRKLVFDDFCDSSNVSNKDSSEDDISRSENEKKSECFSSPKTGFWDCCSTSYAQNLDFESSEGNTIANSVGEISSKLSEKSGLCLSKRLNSIRSFEMNRTRTSSEASMDAAYLDKISELDSMMSESDNSKSPCNNGFKSLDLDGLSKSSQGSEFLEEPDKLEEKTELNLSKGSLTNDQLENGSEWKPTSFFLLSPSDQEMNEDFSLHSSSCPVTNEIKPPSCLFQTEFSQGILLSSSHRLFEDQRFGSSLFKMSSEMHSLHNHLQSPWSTSFVPEKRNKNVNQSTKRKIQSSLSSASPSKATKS
# What was measured:
# [1] = biological target: CNOT2 (human (endogenous in HEK293T)) (UniProt Q9NZN8); test: affinity purification with mass spectrometry; immunoprecipitation with anti-CNOT2, -CNOT3, -CNOT6L or CNOT9 antibodies from HEK293T cells, elution with 1% SDS, LC-MS/MS
# [2] = biological target: CNOT3 (human (endogenous in HEK293T)) (UniProt O75175); test: as above
binder,measurement,setting,value
B1,binding,[1],binds
same,binding,[2],binds
